Test results taken from publication doi:10.1101/2025.04.23.650334.
The exact form of at least one protein or probe is not confirmed.

Amino acid sequences for entries named in this document (tags omitted). A change or cut given only in a name is not applied to a line headed by its entry.
UniProt A8B672: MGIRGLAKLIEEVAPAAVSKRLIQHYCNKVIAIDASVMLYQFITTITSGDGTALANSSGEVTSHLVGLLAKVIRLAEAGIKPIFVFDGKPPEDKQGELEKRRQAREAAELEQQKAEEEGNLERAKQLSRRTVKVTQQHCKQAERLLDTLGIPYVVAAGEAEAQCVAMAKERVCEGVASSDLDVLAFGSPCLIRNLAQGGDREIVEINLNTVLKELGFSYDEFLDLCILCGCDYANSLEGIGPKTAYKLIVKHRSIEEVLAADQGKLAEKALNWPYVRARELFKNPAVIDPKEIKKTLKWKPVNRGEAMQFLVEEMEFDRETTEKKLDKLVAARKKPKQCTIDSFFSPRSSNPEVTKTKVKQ

Tests used:
[1] = biological target: GdFen1-HsAB (Giardia duodenalis) (UniProt A8B672); test: EMSA; conditions: 5 mM MgCl2
[2] = biological target: GdFen1-HsHC (Giardia duodenalis) (UniProt A8B672); test: EMSA; conditions: 5 mM MgCl2

CGCGGATCCCACTACGCCGATTTTTTTTTTTTTTTTTTTTACGTATGCCACGAATTCGCG / CGCGAATTCGTGGCATACGTTTTTTTTTTTTTTTTTTTTTTCGGCGTAGTGGGATCCGCG [Bubble probe]
binding result [1]: binds
binding result [2]: binds
